# In the supplement of paper PMC10849652:
# Sequences of proteins named here, by UniProt entry; tags and fusion partners are left off. A change or cut given only in a name is not applied to a line headed by its entry.
# UniProt Q8N2W9: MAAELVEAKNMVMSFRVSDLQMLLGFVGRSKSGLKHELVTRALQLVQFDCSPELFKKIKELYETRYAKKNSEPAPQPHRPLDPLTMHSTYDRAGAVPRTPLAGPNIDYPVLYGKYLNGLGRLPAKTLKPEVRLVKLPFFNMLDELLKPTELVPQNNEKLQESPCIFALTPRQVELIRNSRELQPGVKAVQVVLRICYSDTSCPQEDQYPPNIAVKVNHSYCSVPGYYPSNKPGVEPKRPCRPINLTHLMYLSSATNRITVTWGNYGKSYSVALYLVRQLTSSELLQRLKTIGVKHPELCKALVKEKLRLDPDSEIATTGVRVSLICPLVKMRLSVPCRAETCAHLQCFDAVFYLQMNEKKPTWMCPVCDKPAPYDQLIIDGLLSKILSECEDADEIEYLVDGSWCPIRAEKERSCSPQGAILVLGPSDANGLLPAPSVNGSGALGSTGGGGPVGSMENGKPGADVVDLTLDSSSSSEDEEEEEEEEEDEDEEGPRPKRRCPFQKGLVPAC
# UniProt Q9P1Y6: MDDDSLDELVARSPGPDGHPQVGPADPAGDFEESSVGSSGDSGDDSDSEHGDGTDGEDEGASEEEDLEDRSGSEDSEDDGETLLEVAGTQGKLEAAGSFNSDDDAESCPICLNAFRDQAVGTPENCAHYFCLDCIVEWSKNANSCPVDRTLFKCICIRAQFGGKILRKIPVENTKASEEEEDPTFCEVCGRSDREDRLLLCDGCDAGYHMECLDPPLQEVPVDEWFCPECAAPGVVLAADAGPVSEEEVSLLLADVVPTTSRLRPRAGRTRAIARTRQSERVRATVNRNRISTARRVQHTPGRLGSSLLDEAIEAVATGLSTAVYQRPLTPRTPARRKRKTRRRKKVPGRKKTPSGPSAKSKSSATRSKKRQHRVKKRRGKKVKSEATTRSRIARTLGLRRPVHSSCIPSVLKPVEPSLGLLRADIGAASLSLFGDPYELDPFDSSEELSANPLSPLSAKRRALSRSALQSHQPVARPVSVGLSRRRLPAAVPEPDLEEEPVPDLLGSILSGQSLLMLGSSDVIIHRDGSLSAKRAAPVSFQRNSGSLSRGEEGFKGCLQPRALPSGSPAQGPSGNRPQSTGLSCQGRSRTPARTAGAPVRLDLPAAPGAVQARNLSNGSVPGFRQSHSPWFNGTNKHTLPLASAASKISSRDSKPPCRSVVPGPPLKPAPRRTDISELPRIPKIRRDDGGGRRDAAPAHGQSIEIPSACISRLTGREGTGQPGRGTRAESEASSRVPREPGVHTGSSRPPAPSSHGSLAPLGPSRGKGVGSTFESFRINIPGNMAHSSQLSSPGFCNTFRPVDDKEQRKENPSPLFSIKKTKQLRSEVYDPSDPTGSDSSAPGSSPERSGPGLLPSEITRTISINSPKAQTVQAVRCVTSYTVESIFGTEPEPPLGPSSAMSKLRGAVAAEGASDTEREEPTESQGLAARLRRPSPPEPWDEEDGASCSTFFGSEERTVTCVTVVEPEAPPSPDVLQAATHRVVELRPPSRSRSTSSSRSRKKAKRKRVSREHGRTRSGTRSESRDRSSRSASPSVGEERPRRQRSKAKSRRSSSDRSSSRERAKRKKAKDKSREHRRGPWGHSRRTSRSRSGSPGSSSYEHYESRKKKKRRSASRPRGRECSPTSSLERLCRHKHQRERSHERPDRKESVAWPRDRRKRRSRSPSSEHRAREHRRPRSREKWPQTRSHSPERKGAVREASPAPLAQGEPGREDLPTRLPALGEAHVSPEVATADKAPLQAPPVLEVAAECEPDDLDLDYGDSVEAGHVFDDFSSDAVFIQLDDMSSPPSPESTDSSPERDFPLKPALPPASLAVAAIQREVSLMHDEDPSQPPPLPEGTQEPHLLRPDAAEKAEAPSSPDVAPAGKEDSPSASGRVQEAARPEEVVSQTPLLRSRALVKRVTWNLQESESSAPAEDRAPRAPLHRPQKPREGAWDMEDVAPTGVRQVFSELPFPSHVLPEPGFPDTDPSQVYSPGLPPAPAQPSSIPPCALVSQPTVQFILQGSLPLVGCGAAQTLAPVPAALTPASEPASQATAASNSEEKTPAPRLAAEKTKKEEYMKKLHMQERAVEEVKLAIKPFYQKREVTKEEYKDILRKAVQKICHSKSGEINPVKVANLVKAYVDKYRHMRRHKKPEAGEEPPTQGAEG
# UniProt Q9C010: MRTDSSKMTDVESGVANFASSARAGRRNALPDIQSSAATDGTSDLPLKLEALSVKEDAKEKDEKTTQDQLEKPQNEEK
# UniProt Q96CS7: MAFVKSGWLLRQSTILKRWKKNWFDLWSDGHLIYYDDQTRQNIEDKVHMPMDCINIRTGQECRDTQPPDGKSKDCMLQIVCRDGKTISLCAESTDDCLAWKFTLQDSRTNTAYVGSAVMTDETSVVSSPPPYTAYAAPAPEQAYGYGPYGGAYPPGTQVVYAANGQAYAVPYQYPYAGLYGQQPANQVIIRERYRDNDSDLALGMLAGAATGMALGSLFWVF
# UniProt P08567: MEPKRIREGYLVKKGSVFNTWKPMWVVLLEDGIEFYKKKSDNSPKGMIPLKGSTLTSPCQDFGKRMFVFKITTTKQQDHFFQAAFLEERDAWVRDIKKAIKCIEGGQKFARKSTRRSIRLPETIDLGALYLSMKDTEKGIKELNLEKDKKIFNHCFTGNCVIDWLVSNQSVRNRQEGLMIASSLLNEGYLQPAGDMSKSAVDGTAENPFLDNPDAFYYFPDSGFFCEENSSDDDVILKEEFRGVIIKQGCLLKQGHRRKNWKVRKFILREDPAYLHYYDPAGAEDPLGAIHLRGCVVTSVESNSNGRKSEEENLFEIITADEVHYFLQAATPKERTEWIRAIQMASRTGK
# UniProt P56589: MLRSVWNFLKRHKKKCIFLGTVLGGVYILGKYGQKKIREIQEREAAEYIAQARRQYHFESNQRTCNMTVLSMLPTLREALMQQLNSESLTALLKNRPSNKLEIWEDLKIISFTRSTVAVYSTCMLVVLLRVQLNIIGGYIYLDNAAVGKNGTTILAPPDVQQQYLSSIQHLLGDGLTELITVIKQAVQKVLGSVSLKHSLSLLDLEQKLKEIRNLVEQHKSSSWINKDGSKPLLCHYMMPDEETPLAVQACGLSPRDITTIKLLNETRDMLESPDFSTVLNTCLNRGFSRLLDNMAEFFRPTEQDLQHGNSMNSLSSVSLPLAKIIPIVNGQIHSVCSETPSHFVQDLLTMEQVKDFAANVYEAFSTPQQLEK
# UniProt O94880: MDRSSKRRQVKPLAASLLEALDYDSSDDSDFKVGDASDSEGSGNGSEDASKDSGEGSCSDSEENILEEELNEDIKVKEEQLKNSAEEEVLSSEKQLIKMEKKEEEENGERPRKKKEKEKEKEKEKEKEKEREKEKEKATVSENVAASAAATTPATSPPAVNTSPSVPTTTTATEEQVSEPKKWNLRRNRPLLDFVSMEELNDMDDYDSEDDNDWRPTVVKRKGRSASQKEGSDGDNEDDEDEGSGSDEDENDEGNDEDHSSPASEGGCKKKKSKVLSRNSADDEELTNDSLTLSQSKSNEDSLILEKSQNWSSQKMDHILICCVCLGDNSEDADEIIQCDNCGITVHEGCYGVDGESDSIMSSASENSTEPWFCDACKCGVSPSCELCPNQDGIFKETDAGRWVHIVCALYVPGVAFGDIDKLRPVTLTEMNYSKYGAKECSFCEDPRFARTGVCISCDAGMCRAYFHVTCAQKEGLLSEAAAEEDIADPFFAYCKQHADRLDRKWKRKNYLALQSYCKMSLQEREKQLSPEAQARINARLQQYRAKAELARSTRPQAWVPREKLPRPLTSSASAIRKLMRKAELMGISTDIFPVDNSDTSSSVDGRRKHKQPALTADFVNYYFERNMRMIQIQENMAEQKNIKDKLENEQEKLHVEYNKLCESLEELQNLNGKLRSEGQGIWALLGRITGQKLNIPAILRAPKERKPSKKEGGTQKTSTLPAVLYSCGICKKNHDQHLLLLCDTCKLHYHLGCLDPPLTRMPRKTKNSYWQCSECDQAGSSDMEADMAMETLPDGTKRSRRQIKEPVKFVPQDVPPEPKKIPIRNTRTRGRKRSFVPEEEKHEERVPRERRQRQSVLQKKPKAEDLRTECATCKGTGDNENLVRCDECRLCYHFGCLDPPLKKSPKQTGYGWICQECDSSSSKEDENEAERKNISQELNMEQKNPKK
# UniProt Q9Y2B9: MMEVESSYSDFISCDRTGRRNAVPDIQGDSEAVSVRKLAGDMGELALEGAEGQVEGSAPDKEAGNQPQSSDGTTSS
# UniProt Q9NRD5, whole entry, looked up: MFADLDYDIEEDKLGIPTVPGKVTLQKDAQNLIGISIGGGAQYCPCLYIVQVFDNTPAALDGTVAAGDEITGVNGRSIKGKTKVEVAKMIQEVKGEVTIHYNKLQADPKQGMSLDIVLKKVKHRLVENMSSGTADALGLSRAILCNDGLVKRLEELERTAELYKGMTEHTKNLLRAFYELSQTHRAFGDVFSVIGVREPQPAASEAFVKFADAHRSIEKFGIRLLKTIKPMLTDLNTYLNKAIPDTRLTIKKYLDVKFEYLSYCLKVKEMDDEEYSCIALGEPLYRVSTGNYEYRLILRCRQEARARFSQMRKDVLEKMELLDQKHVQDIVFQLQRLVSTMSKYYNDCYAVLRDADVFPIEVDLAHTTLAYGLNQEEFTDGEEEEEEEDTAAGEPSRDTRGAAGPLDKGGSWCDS
# UniProt P11309, whole entry, looked up: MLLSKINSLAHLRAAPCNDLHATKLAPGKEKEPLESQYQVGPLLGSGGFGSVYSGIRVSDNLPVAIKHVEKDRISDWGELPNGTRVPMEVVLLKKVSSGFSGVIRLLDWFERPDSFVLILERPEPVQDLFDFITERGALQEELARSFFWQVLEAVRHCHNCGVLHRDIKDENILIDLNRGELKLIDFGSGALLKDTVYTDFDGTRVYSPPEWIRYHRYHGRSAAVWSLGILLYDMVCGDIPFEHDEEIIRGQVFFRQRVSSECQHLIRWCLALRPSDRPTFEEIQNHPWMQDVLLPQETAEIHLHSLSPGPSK
# UniProt Q8WXW3: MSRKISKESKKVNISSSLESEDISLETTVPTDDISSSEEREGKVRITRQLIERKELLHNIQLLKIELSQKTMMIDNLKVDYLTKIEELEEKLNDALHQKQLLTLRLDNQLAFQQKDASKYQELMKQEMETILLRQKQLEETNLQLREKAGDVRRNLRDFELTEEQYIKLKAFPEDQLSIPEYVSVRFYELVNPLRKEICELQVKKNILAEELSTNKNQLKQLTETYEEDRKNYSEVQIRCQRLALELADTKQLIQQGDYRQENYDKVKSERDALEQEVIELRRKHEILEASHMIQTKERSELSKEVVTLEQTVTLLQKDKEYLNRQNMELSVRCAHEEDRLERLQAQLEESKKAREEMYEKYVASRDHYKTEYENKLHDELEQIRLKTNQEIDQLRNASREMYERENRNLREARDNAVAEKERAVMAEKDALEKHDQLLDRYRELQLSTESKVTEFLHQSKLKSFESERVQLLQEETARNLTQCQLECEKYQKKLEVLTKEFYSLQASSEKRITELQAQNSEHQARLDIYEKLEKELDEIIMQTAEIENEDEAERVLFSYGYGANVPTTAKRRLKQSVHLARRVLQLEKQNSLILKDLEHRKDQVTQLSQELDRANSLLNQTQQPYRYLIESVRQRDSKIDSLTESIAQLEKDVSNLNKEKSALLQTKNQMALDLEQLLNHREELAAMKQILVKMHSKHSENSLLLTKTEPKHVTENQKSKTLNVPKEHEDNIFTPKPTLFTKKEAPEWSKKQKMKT
# UniProt Q8IXK0: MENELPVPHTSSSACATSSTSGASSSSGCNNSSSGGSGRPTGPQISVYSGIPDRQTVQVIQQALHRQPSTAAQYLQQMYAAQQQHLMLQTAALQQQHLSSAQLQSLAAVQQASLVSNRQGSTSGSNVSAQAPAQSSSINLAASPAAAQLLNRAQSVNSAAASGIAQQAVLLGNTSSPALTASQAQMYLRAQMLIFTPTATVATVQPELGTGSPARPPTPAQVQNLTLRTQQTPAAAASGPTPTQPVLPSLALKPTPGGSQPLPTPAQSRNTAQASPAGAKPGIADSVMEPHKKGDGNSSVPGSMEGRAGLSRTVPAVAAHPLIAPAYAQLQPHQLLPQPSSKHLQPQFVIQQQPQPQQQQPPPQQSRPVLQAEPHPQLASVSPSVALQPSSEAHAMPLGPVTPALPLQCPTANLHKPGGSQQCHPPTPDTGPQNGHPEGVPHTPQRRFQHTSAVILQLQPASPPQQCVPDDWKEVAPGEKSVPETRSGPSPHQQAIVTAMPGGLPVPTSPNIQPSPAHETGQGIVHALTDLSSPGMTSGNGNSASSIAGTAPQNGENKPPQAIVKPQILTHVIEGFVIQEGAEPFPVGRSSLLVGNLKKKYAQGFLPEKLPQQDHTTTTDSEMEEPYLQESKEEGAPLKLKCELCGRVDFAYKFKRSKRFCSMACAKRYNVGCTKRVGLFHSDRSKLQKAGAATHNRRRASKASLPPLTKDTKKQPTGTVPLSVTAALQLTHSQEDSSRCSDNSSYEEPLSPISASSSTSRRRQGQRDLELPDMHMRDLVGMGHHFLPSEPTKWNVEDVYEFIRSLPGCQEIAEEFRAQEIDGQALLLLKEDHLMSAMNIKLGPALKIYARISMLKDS
# Some of the results follow.
# Compound: Cn1cncc1[C@@](N)(c1ccc(Cl)cc1)c1ccc2c(c1)c(-c1cccc(Cl)c1)cc(=O)n2C [tipifarnib]
# Assay: log2 fold change, soluble protein after heating vs DMSO (PISA); higher = thermal stabilisation; K562 cells, 10 uM, 30 min; active = over 0.2 and 3.5 SD of the protein, either way, in both replicates (recomputed)
# In short: (§1)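 K562 cells at 2×10^6 cells/mL were given 10 μM compound for 30 min. Aliquots then went through 3 min of heating across 48°C-58°C, were pooled, and were extracted in PBS with 0.5% NP-40 at 4°C, and the supernatant after 21,000xg for 90 min was quantified by TMTpro 16plex LC-MS/MS with channel sums equalised. Thermal stability relative to control samples, from duplicates, is given as log2 fold change.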
row,Target,log2 fold change
1,PKLR (UniProt F8W6W2),inactive: 0.103
2,PIAS4 (UniProt Q8N2W9),inactive: 0.002
3,PHRF1 (UniProt Q9P1Y6),inactive: 0.159
4,PHETA1 isoform 4 (UniProt Q8N4B1),inactive: 0.092
5,PKIB isoform 2 (UniProt Q9C010),inactive: 0.007
6,PHYKPL (UniProt Q8IUZ5),inactive: 0.034
7,PLEKHB2 isoform 2 (UniProt Q96CS7),inactive: 0.002
8,PLEK (UniProt P08567),inactive: 0.058
9,PIK3CD (UniProt O00329),inactive: 0.031
10,PIAS1 isoform 2 (UniProt O75925),inactive: 0.073
11,PFN3 (UniProt P60673),inactive: -0.271
12,PLD6 (UniProt Q8N2A8),inactive: 0.153
13,PEX26 (UniProt Q7Z412),inactive: 0.011
14,PEX3 (UniProt P56589),inactive: -0.09
15,PIGB (UniProt Q92521),inactive: 0.006

# Compound: FC(F)(F)c1ccc(/C=C/c2nc(COc3ccc(CCCCn4ccnn4)cc3)co2)cc1 [mubritinib]
# Assay: as above
# In short: as §1
row,Target,log2 fold change
1,PIAS4 (UniProt Q8N2W9),inactive: 0.199
2,PHF14 (UniProt O94880),inactive: 0.143
3,PKIG (UniProt Q9Y2B9),inactive: -0.197
4,PICK1 (UniProt Q9NRD5),inactive: 0.048
5,PHRF1 (UniProt Q9P1Y6),inactive: -0.099
6,PKIB isoform 2 (UniProt Q9C010),inactive: 0.128
7,PHYKPL (UniProt Q8IUZ5),inactive: 0.036
8,PIM1 isoform 2 (UniProt P11309),inactive: 0.721
9,PIK3C2A (UniProt O00443),inactive: 0.073
10,PFN3 (UniProt P60673),inactive: 0.002
11,PEX26 (UniProt Q7Z412),inactive: 0.016
12,PLEKHA5 isoform 6 (UniProt Q9HAU0),inactive: -0.19
13,PEX3 (UniProt P56589),inactive: 0.002
14,PIBF1 (UniProt Q8WXW3),inactive: -0.076
15,PHC2 isoform 5 (UniProt Q8IXK0),inactive: -0.039
16,PIGB (UniProt Q92521),inactive: 0.048
